According to patent US20020177231A1:
Results are given in words; binding and its absence hold for the method and conditions named. Binding seen in cells or lysates may run through a third protein. Some binding calls cover weakened binding; strength is not graded here. Sequences can lack the tags named with a protein.

Sequences of proteins named here, by UniProt entry; tags and fusion partners are left off.
UniProt Q14289: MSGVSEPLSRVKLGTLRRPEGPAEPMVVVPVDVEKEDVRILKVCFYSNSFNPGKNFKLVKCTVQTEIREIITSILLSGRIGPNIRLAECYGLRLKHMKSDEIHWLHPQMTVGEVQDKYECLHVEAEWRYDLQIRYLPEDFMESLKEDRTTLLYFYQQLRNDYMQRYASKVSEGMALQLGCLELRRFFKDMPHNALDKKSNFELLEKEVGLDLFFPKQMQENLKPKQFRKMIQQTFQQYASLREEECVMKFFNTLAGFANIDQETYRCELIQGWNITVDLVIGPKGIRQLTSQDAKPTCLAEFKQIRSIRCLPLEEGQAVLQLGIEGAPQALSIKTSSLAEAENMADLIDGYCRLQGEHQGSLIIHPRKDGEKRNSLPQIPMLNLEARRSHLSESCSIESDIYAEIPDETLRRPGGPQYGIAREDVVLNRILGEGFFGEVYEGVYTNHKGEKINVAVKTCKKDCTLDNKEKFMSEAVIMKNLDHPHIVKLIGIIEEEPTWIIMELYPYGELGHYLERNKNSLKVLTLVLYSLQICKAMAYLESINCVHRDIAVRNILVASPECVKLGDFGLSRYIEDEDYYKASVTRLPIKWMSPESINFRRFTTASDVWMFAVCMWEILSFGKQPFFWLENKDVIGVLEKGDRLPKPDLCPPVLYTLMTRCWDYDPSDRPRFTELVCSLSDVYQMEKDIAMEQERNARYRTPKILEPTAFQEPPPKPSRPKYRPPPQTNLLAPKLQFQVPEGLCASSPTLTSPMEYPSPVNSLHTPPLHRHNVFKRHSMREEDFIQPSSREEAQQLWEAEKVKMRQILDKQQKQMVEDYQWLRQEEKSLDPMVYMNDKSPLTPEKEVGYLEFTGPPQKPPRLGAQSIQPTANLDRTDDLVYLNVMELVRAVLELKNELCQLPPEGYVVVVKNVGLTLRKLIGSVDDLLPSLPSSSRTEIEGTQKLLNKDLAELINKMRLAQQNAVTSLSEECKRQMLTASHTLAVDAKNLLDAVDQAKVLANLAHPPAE

Molecular target: PYK2 (UniProt Q14289)
Assay: co-immunoprecipitation from JY8 lysate (anti-PYK2; reciprocal with anti-GFP), Western blot

binding: binds
B1: EGFP-leupaxin chimeric protein (protein, not shown: large carriers)
chain: MEELDALLEELERSTLQDSDEYSNPAPLPLDQHSRKETNLDETSEILSIQDNTSPLPAQLVYTTNIQELNVYSEAQEPKESPPPSKTSAAAQLDELMAHLTEMQAKVAVRADAGKKHLPDKQDHKASLDSMLGGLEQELQDLGIATVPKGHCASCQKPIAGKVIHALGQSWHPEHFVCTHCKEEIGSSPFFERSGLAYCPNDYHQLFSPRCAYCAAPILDKVLTAMNQTWHPEHFFCSHCGEVFGAEGFHEKDKKPYCRKDFLAMFSPKCGGCNRPVLENYLSAMDTVWHPECFVCGDCFTSFSTGSFFELDGRPFCELHYHHRRGTLCHGCGQPITGRCISAMGYKFHPEHFVCAFCLTQLSKGIFREQNDKTYCQPCFNKLFPL
modifications: phosphotyrosine (sites not given)
